Measured data: PubChem BioAssay AID1224828 (NIAID, 2016)
Assay: 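Regulators linking TLR4 signalling to p65 nuclear translocation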 (primary screen). System: mouse RAW264.7 G9 macrophage reporter cells (GFP-p65, Tnf promoter-mCherry). Reagent: siRNA pool against mouse genes, 100 nM. Time to read-out: 2 days siRNA transfection, then 40 min LPS before fixation. Challenge: LPS (Salmonella minnesota R595) at 10 ng/ml. Detection: 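Imaged p65 nuclear translocation ratio, normalised to the plate median, converted to robust z-scores and averaged across two replicates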. Direction: p65 translocation robust z-score: higher = more nuclear NF-kappaB p65 after LPS than the plate median; nuclear/cytoplasmic p65 ratio: higher = more nuclear NF-kappaB p65. Hit rule: 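Active if robust z is above 3.3 (negative regulators) or below -1.56, the Tlr4 control median (positive regulators); activity score 50 or more; control wells not called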. Calls: active = hit (p65 shift raised or lowered); inactive = no clear change.
The whole screen tested about 17,000 reagents; below is a part drawn at random. In the full data, 762 (4.5%) are marked active. 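Active calls include both raised and lowered p65 entry, mostly lowered; wells with fewer than 50 cells lack a z-score.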 Raw values vary from plate to plate and are shown uncorrected. Reagents against one gene are numbered here. Reagent sequences are not shown.

| Gene | reagent no. | p65 translocation robust z-score | nuclear/cytoplasmic p65 ratio, rep 1 | nuclear/cytoplasmic p65 ratio, rep 2 | low cell count flag | Call |
| --- | --- | --- | --- | --- | --- | --- |
| Supt20 | 1 | -1.58 | 1.27 | 1.15 | enough cells to score | active |
| Tor1aip2 | 1 | -1.28 | 1.36 | 1.32 | enough cells to score | inactive |
| Tor1aip2 | 2 | 0.8 | 1.62 | 1.49 | enough cells to score | inactive |
| Svs6 | 1 | – | 1.3 | 1.17 | fewer than 50 cells per well; well left out of scoring | inactive |
| Or5l13 | 1 | -0.39 | 1.69 | 1.44 | enough cells to score | inactive |
| Smarcd2 | 1 | 0.26 | 1.57 | 1.61 | enough cells to score | inactive |
| Or51d1 | 1 | -1.26 | 1.19 | 1.12 | enough cells to score | inactive |
| Mrps14 | 1 | 0.93 | 1.9 | 1.76 | enough cells to score | inactive |
| Cntfr | 1 | 0.7 | 1.47 | 1.55 | enough cells to score | inactive |
| Hipk4 | 1 | – | 1.45 | 1.59 | fewer than 50 cells per well; well left out of scoring | inactive |
| Hcrtr2 | 1 | -0.77 | 1.28 | 1.32 | enough cells to score | inactive |
| Ptpn23 | 1 | -0.75 | 1.39 | 1.31 | enough cells to score | inactive |
| Tmpo | 1 | 1.29 | 1.46 | 1.4 | enough cells to score | inactive |
| Spast | 1 | -0.44 | 1.48 | 1.49 | enough cells to score | inactive |
| Atoh1 | 1 | -1.02 | 1.4 | 1.42 | enough cells to score | inactive |
| Kremen2 | 1 | 0.55 | 1.51 | 1.48 | enough cells to score | inactive |
| Ist1 | 1 | – | 1.08 | 1.27 | fewer than 50 cells per well; well left out of scoring | inactive |
| Ywhae | 1 | -0.01 | 1.49 | 1.52 | enough cells to score | inactive |
| Slc9a6 | 1 | – | 1.55 | 1.41 | fewer than 50 cells per well; well left out of scoring | inactive |
| Tram1l1 | 1 | – | 1.45 | 1.22 | fewer than 50 cells per well; well left out of scoring | inactive |
| Cul1 | 1 | -0.73 | 1.3 | 1.27 | enough cells to score | inactive |
| Hsph1 | 1 | -0.11 | 1.42 | 1.37 | enough cells to score | inactive |
| Afm | 1 | -1.04 | 1.43 | 1.54 | enough cells to score | inactive |
| Coro1a | 1 | 0.18 | 1.52 | 1.39 | enough cells to score | inactive |
| Or13c3 | 1 | -1.13 | 1.46 | 1.26 | enough cells to score | inactive |
| Lpar2 | 1 | -0.01 | 1.5 | 1.58 | enough cells to score | inactive |
| Mylpf | 1 | -0.61 | 1.71 | 1.48 | enough cells to score | inactive |
| Cct5 | 1 | -1.27 | 1.24 | 1.22 | enough cells to score | inactive |
| Scarb1 | 1 | -0.36 | 1.44 | 1.49 | enough cells to score | inactive |
| Fam98c | 1 | – | 1.41 | 1.38 | fewer than 50 cells per well; well left out of scoring | inactive |
| Vma12 | 1 | 0.98 | 1.75 | 1.84 | enough cells to score | inactive |
| Tipin | 1 | – | 1.31 | 1.21 | fewer than 50 cells per well; well left out of scoring | inactive |
| Npm2 | 1 | -1.62 | 1.46 | 1.27 | enough cells to score | active |
| Rpp14 | 1 | -1.47 | 1.32 | 1.31 | enough cells to score | inactive |
| Tmem81 | 1 | 0.78 | 1.36 | 1.26 | enough cells to score | inactive |
| Sbp | 1 | 0.66 | 1.46 | 1.33 | enough cells to score | inactive |
| Ppp1r3b | 1 | -1.13 | 1.29 | 1.31 | enough cells to score | inactive |
| Or51k1 | 1 | 0.42 | 1.5 | 1.32 | enough cells to score | inactive |
| Tulp4 | 1 | – | 1.3 | 1.26 | fewer than 50 cells per well; well left out of scoring | inactive |
| Sec13 | 1 | – | 1.8 | 1.26 | fewer than 50 cells per well; well left out of scoring | inactive |
| Zfp235 | 1 | – | 1.15 | 0.995 | fewer than 50 cells per well; well left out of scoring | inactive |
| Ssb | 1 | 0.05 | 1.45 | 1.24 | enough cells to score | inactive |
| Naif1 | 1 | 1.63 | 1.55 | 1.71 | enough cells to score | inactive |
| Or14c39 | 1 | – | 1.11 | 1.38 | fewer than 50 cells per well; well left out of scoring | inactive |
| Reck | 1 | 0.25 | 1.44 | 1.66 | enough cells to score | inactive |
| Dach1 | 1 | 2.2 | 1.83 | 1.59 | enough cells to score | inactive |
| Mrgprb2 | 1 | 0.73 | 1.57 | 1.73 | enough cells to score | inactive |
| Capza2 | 1 | -0.85 | 1.45 | 1.53 | enough cells to score | inactive |
| Sva | 1 | 1.81 | 1.69 | 1.43 | enough cells to score | inactive |
| Mnat1 | 1 | 1.73 | 1.61 | 1.62 | enough cells to score | inactive |
| Cds1 | 1 | -0.5 | 1.49 | 1.73 | enough cells to score | inactive |
| Ppp1r2 | 1 | 0.18 | 1.49 | 1.46 | enough cells to score | inactive |
| Tpst2 | 1 | – | 0 | 0 | fewer than 50 cells per well; well left out of scoring | inactive |
| Slc8a1 | 1 | -0.57 | 1.4 | 1.47 | enough cells to score | inactive |
| Slc8a1 | 2 | -0.49 | 1.48 | 1.49 | enough cells to score | inactive |
| Or51l4 | 1 | – | 1.43 | 1.42 | fewer than 50 cells per well; well left out of scoring | inactive |
| Or4c35 | 1 | 2.2 | 1.91 | 1.74 | enough cells to score | inactive |
| Cxcl17 | 1 | -0.22 | 1.58 | 1.77 | enough cells to score | inactive |
| Cdkn2c | 1 | 1.73 | 1.83 | 1.71 | enough cells to score | inactive |

6 entries already listed, sorted by “p65 translocation robust z-score”, high to low:
| Gene | reagent no. | p65 translocation robust z-score | nuclear/cytoplasmic p65 ratio, rep 1 | nuclear/cytoplasmic p65 ratio, rep 2 | low cell count flag | Call |
| --- | --- | --- | --- | --- | --- | --- |
| Tmem81 | 1 | 0.78 | 1.36 | 1.26 | enough cells to score | inactive |
| Sbp | 1 | 0.66 | 1.46 | 1.33 | enough cells to score | inactive |
| Or51k1 | 1 | 0.42 | 1.5 | 1.32 | enough cells to score | inactive |
| Ppp1r3b | 1 | -1.13 | 1.29 | 1.31 | enough cells to score | inactive |
| Rpp14 | 1 | -1.47 | 1.32 | 1.31 | enough cells to score | inactive |
| Npm2 | 1 | -1.62 | 1.46 | 1.27 | enough cells to score | active |
